# Values from PubChem BioAssay AID686938 (Drosophila RNAi Screening Center, 2013).
# Assay: 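Looking for CRAC channel components and the factors controlling them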 (primary screen)
# Cell system: Drosophila S2R+ cells
# Reagent: long dsRNA against Drosophila genes, about 0.25 µg dsRNA per well, roughly 10,000 cells
# Duration: 5 days of knock-down before the calcium assay
# Challenge: thapsigargin (SERCA pump blocker) to empty calcium stores; entry signal taken 4 min after adding it
# Measured: 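Per-well fluo-4 fluorescence in two replicates, unnormalised, measured in resting cells and 4 min after store depletion by the SERCA blocker thapsigargin; ratio of the two present in few wells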
# Scale: calcium entry signal: higher = stronger calcium signal after store depletion; entry to resting ratio: higher = more calcium entry relative to resting level; resting calcium signal: higher = higher resting calcium signal
# Call rule: 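Called when the plate z-score of the entry-to-rest ratio, mean of duplicates, falls below −3; wells with low overall dye signal (Fmax z below −2) or more than five off-targets excluded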
# Calls: active = strongly reduced calcium entry; inactive = no strong reduction
# The screen tested about 23,000 reagents; shown is an unselected part of those that have a named target and a result. Of all reagents, 75 (0.33%) are marked active. 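Raw plate signals without normalisation; calls rest on plate z-scores that were not deposited; ratio present for only 364 wells.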 A number with no mark means an inactive call. Reagents against one gene are numbered here. Names joined by + are all predicted targets of the reagent. Not stated in the record: the dose of the treatment.
"calcium entry signal, replicate 1 (fluorescence units)","calcium entry signal, replicate 2 (fluorescence units)",entry to resting ratio,"resting calcium signal, replicate 1 (fluorescence units)","resting calcium signal, replicate 2 (fluorescence units)",gene knocked down,reagent no.
3.55e7,5.46e7,,1.69e7,2.43e7,CG33631 (GeneID 3771784),1
4.00e7,4.63e7,,2.09e7,2.06e7,Cndp2 (GeneID 35507),1
4.05e7,3.78e7,,1.90e7,1.91e7,Ugt37A2 (GeneID 41573),1
4.08e7,4.13e7,,5.34e7,1.83e7,lncRNA:CR43372 (GeneID 12798502),1
2.18e7,3.28e7,,1.02e7,1.90e7,CG6661 + asRNA:CR42871,1
2.62e7,4.02e7,,1.35e7,1.82e7,CG31869 (GeneID 34490),1
3.47e7,4.30e7,,1.42e7,1.87e7,CG31869 (GeneID 34490),2
3.32e7,5.15e7,,1.63e7,2.53e7,GABA-B-R1 (GeneID 34878),1
2.19e7,,,1.40e7,,l(2)37Cb (GeneID 35192),1
2.64e7,4.56e7,,1.20e7,1.90e7,trbl (GeneID 43999),1
2.55e7,3.01e7,,1.30e7,1.47e7,CG34244 (GeneID 5740216),1
4.01e7,4.55e7,,1.79e7,1.71e7,CG1946 (GeneID 35720),1
2.83e7,2.66e7,,1.37e7,1.32e7,inaF-B (GeneID 8674114),1
4.45e7,3.00e7,,2.18e7,1.34e7,esg (GeneID 34903),1
3.48e7,4.04e7,2.2,1.56e7,1.69e7,CG31204 (GeneID 318625),1
1.92e7,2.96e7,,9.21e6,1.39e7,CG13670 (GeneID 38938),1
3.95e7,4.48e7,,1.72e7,2.01e7,CtsL3 (GeneID 40741),1
3.66e7,3.69e7,,1.87e7,1.79e7,hng3 (GeneID 38090),1
3.79e7,3.56e7,,1.84e7,1.78e7,Gk1 (GeneID 43913),1
3.39e7,4.71e7,,1.75e7,1.99e7,Gk1 (GeneID 43913),2
3.53e7,3.30e7,,1.85e7,1.54e7,Ir52d (GeneID 36716),1
3.76e7,3.87e7,,1.80e7,1.61e7,MsR1 (GeneID 38298),1
3.10e7,3.17e7,,1.48e7,1.39e7,CG1677 (GeneID 31662),1
4.35e7,5.79e7,,2.24e7,2.49e7,Sid (GeneID 43390),1
4.41e7,4.45e7,,1.98e7,1.97e7,Gr47a (GeneID 36094),1
2.83e7,3.12e7,,1.36e7,1.41e7,CG15358 (GeneID 33366),1
2.94e7,5.12e7,,1.65e7,2.17e7,CG7607 (GeneID 39263),1
3.98e7,2.37e7,2,1.94e7,1.34e7,RpL22 (GeneID 31022),1
1.45e7,1.99e7,,9.12e6,1.13e7,RpL22 (GeneID 31022),2
3.08e7,3.30e7,,1.41e7,1.60e7,CG8249 (GeneID 36742),1
3.79e7,3.26e7,,2.02e7,1.73e7,Aos1 (GeneID 41532),1
4.57e7,5.56e7,,1.81e7,2.22e7,CG9727 (GeneID 40794),1
3.75e7,1.82e7,,1.80e7,9.71e6,CG15597 (GeneID 40767),1
3.33e7,4.90e7,,1.73e7,2.38e7,CG31717 (GeneID 318911),1
2.55e7,3.38e7,,1.23e7,1.55e7,Eaf (GeneID 35660),1
4.35e7,,,2.08e7,,Eaf (GeneID 35660),2
2.62e7,4.10e7,,1.30e7,2.15e7,Eaf (GeneID 35660),3
3.33e7,5.15e7,,1.63e7,2.05e7,Sln (GeneID 36263),1
2.28e7 (active),2.15e7,,1.65e7,1.48e7,Dis3 (GeneID 42900),1
4.91e7,3.99e7,,2.29e7,1.89e7,sowi (GeneID 40809),1
1.54e7,2.03e7,,8.39e6,9.52e6,PPYR1 (GeneID 32453),1
2.88e7,3.88e7,,1.49e7,1.80e7,slam (GeneID 33890),1
2.83e7,3.71e7,,1.50e7,1.84e7,Cpr66D (GeneID 38990),1
3.23e7,3.59e7,,3.08e7,1.89e7,Cpr66D (GeneID 38990),2
4.65e7,3.58e7,,2.20e7,1.52e7,Cpr66D (GeneID 38990),3
2.13e7,3.47e7,,1.11e7,1.39e7,CG34444 (GeneID 5740745),1
4.25e7,3.76e7,,2.21e7,1.82e7,CG34125 (GeneID 4379886),1
2.41e7,2.88e7,,1.19e7,1.40e7,Gmap (GeneID 32483),1
2.71e7,2.59e7,,1.45e7,1.11e7,Gmap (GeneID 32483),2
3.95e7,3.08e7,,1.97e7,1.51e7,Rtnl2 (GeneID 40903),1
3.97e7,4.26e7,,2.34e7,2.06e7,Rtnl2 (GeneID 40903),2
2.26e7,2.96e7,,1.27e7,1.29e7,CG4461 (GeneID 39074),1
3.91e7,3.70e7,,2.01e7,1.63e7,CG8664 (GeneID 32719),1
3.93e7,4.74e7,,2.06e7,2.12e7,Or42a (GeneID 35514),1
3.68e7,3.25e7,,2.48e7,1.57e7,Unr (GeneID 38963),1
4.23e7,3.17e7,,1.96e7,1.42e7,Unr (GeneID 38963),2
2.39e7,3.58e7,,1.31e7,1.62e7,CG32277 (GeneID 38393),1
3.06e7,4.03e7,,1.51e7,1.88e7,Nelf-E (GeneID 38982),1

6 entries from above, reformatted:
{"gene knocked down":"CG7607 (GeneID 39263)","reagent no.":1,"calcium entry signal, replicate 1 (fluorescence units)":2.94e7,"calcium entry signal, replicate 2 (fluorescence units)":5.12e7,"resting calcium signal, replicate 1 (fluorescence units)":1.65e7,"resting calcium signal, replicate 2 (fluorescence units)":2.17e7}
{"gene knocked down":"RpL22 (GeneID 31022)","reagent no.":1,"calcium entry signal, replicate 1 (fluorescence units)":3.98e7,"calcium entry signal, replicate 2 (fluorescence units)":2.37e7,"entry to resting ratio":2,"resting calcium signal, replicate 1 (fluorescence units)":1.94e7,"resting calcium signal, replicate 2 (fluorescence units)":1.34e7}
{"gene knocked down":"RpL22 (GeneID 31022)","reagent no.":2,"calcium entry signal, replicate 1 (fluorescence units)":1.45e7,"calcium entry signal, replicate 2 (fluorescence units)":1.99e7,"resting calcium signal, replicate 1 (fluorescence units)":9.12e6,"resting calcium signal, replicate 2 (fluorescence units)":1.13e7}
{"gene knocked down":"CG8249 (GeneID 36742)","reagent no.":1,"calcium entry signal, replicate 1 (fluorescence units)":3.08e7,"calcium entry signal, replicate 2 (fluorescence units)":3.30e7,"resting calcium signal, replicate 1 (fluorescence units)":1.41e7,"resting calcium signal, replicate 2 (fluorescence units)":1.60e7}
{"gene knocked down":"Aos1 (GeneID 41532)","reagent no.":1,"calcium entry signal, replicate 1 (fluorescence units)":3.79e7,"calcium entry signal, replicate 2 (fluorescence units)":3.26e7,"resting calcium signal, replicate 1 (fluorescence units)":2.02e7,"resting calcium signal, replicate 2 (fluorescence units)":1.73e7}
{"gene knocked down":"CG9727 (GeneID 40794)","reagent no.":1,"calcium entry signal, replicate 1 (fluorescence units)":4.57e7,"calcium entry signal, replicate 2 (fluorescence units)":5.56e7,"resting calcium signal, replicate 1 (fluorescence units)":1.81e7,"resting calcium signal, replicate 2 (fluorescence units)":2.22e7}
